PubChem BioAssay AID504764 | Drosophila RNAi Screening Center – 2011

- Assay: 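Genome-wide screen for regulators of Notch-driven gene expression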 (primary screen)
- System: Drosophila Kc167 cells
- Knock-down reagent: long dsRNA against Drosophila genes
- Timing: about 5 days (4 days dsRNA, then 24 h after transfection)
- Treatment: transfection of constitutively active membrane-tethered Notch lacking the extracellular domain, read 24 h later
- Detection: 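Firefly luciferase from an E(spl)m3 reporter with active Notch, plus control-promoter and uninduced reporter wells for normalisation; unnormalised counts, duplicate wells a and b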
- Reading the numbers: induced reporter light, run 1, well a and induced reporter light, run 1, well b: higher = more light from the Notch target reporter with active Notch; control promoter light, run 1, well a and control promoter light, run 1, well b: higher = more light from the viral control promoter (cell number, transfection, viability); uninduced reporter light, run 1, well a: higher = more light from the Notch target reporter without active Notch
- Rule for the call: 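Wells with low control signal or poorly matching duplicates excluded; duplicates averaged; per source plate, z beyond ±2 for induced/control log2 ratio or beyond ±1.8 for induced/uninduced marks a hit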
- Meaning of the calls: active = modifier hit (raised or lowered Notch signal); inactive = not a hit
In all, the deposit lists about 22,000 reagents; this is a random part of those with a known target gene and a result. Of all reagents, 403 (1.9%) got an active call. 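Unnormalised raw counts per well; ratio z-scores behind the hit calls and whether each hit raises or lowers signal are not deposited.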 A number with no mark means an inactive call. The record does not give: the amount of reagent.

Pp1-13C [DRSC20269] — induced reporter light, run 1, well a: 1.23e5; induced reporter light, run 1, well b: 1.09e5; control promoter light, run 1, well a: 1.20e5; control promoter light, run 1, well b: 94660; uninduced reporter light, run 1, well a: 14930
Con [DRSC08652] — induced reporter light, run 1, well a: 1.32e5; induced reporter light, run 1, well b: 1.34e5; control promoter light, run 1, well a: 1.03e5; control promoter light, run 1, well b: 68530; uninduced reporter light, run 1, well a: 12992
CG17754 [DRSC18131] — induced reporter light, run 1, well a: 2.09e5; induced reporter light, run 1, well b: 1.94e5; control promoter light, run 1, well a: 2.35e5; control promoter light, run 1, well b: 2.54e5; uninduced reporter light, run 1, well a: 14175
CG6325 [DRSC16020] — induced reporter light, run 1, well a: 1.17e5; induced reporter light, run 1, well b: 1.14e5; control promoter light, run 1, well a: 91415; control promoter light, run 1, well b: 62655; uninduced reporter light, run 1, well a: 8750
CG18281 [DRSC11742] — induced reporter light, run 1, well a: 1.22e5; induced reporter light, run 1, well b: 1.44e5; control promoter light, run 1, well a: 75520; control promoter light, run 1, well b: 82335; uninduced reporter light, run 1, well a: 8685
CG9254 [DRSC01969] — induced reporter light, run 1, well a: 1.55e5; induced reporter light, run 1, well b: 1.70e5; control promoter light, run 1, well a: 1.49e5; control promoter light, run 1, well b: 1.63e5; uninduced reporter light, run 1, well a: 13305
CG10208 [DRSC14211] — induced reporter light, run 1, well a: 1.74e5; induced reporter light, run 1, well b: 1.73e5; control promoter light, run 1, well a: 2.01e5; control promoter light, run 1, well b: 2.07e5; uninduced reporter light, run 1, well a: 15190

2 consecutive records from above, quoted:
Con [DRSC08652] — induced reporter light, run 1, well a: 1.32e5; induced reporter light, run 1, well b: 1.34e5; control promoter light, run 1, well a: 1.03e5; control promoter light, run 1, well b: 68530; uninduced reporter light, run 1, well a: 12992
CG17754 [DRSC18131] — induced reporter light, run 1, well a: 2.09e5; induced reporter light, run 1, well b: 1.94e5; control promoter light, run 1, well a: 2.35e5; control promoter light, run 1, well b: 2.54e5; uninduced reporter light, run 1, well a: 14175

The results go on.
CG12436 (retired record) [DRSC09869] — induced reporter light, run 1, well a: 3.32e5; induced reporter light, run 1, well b: 2.50e5; control promoter light, run 1, well a: 3.90e5; control promoter light, run 1, well b: 3.05e5; uninduced reporter light, run 1, well a: 11690
CG12436 (retired record) [DRSC09885] — induced reporter light, run 1, well a: 1.51e5; induced reporter light, run 1, well b: 1.53e5; control promoter light, run 1, well a: 2.17e5; control promoter light, run 1, well b: 1.68e5; uninduced reporter light, run 1, well a: 8880
PIG-O [DRSC06123] — induced reporter light, run 1, well a: 60395; induced reporter light, run 1, well b: 60405; control promoter light, run 1, well a: 96580; control promoter light, run 1, well b: 79850; uninduced reporter light, run 1, well a: 4382
smp-30 [DRSC17059] — induced reporter light, run 1, well a: 2.15e5; induced reporter light, run 1, well b: 2.15e5; control promoter light, run 1, well a: 2.30e5; control promoter light, run 1, well b: 1.91e5; uninduced reporter light, run 1, well a: 16300
Sur-8 [DRSC15794] — induced reporter light, run 1, well a: 1.62e5; induced reporter light, run 1, well b: 1.97e5; control promoter light, run 1, well a: 1.74e5; control promoter light, run 1, well b: 2.06e5; uninduced reporter light, run 1, well a: 16400
